Results are given in words; binding and its absence hold for the method and conditions named. Binding seen in cells or lysates may run through a third protein. Some entries that bind do so weakly or less than the wild type.
Target: linker histone H1.5 (human (endogenous in glioma cells)) (UniProt P16401)
Test: co-IP; nuclear complex co-IP; IP with H1.5 antibody, isotype (IgG) control; immunoblot for NPM1; procedures as in ref. 31

Amino acid sequences for entries named in this document (tags omitted).
UniProt P16401: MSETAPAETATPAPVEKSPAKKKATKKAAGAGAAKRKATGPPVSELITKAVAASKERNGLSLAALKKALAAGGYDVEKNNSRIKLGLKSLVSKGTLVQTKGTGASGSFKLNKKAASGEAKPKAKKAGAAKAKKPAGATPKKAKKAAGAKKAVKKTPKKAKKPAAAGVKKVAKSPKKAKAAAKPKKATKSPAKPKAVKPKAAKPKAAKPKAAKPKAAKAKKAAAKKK
UniProt P06748: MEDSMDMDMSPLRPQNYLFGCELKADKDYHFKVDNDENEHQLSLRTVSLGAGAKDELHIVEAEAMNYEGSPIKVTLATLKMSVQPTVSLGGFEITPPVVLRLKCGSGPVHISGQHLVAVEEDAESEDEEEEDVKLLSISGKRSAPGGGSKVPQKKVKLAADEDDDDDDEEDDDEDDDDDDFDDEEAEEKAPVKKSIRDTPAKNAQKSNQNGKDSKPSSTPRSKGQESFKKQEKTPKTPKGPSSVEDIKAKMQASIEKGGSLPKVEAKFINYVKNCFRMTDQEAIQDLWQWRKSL

Substance: NPM1 (nucleophosmin) (from UniProt P06748 1-294)
- binding: binds

Reference: publication PMC4642306
